From PubChem BioAssay AID540276 (National Center for Advancing Translational Sciences (NCATS), 2011)
Out of some 300,000 compounds screened, about 5,400 (1.8%) were called active. This list was built around the results that the source calls inconclusive (neither active nor inactive); the mix of calls is not that of the screen. The call rests on the fitted dose curve; tested in HEK293 cells. Where the call is inconclusive, the potency comes from a doubtful curve fit.
On the % scale 0 is the no-effect control and ±100 the full control effect; potency means the concentration at half of the fitted maximal effect.

Experiment: qHTS for inhibitors of binding or entry into cells for Marburg Virus
Conditions: Marburg virus pseudotyped entry inhibition, cell reporter; activity change, negative = inhibition: at 37.8 µM (top of the series) unless noted
In the case of Cc1nnc(SCC(=O)Nc2ccccc2NC(=O)CSc2nnc(C)s2)s1, the “activity change, negative = inhibition” value is reported as inactive: -4.91%. For Cc1cc2nc(C)n(CCCNC(=O)Nc3ccc(C#N)cc3)c2cc1C, the Potency was inconclusive: 35.5 µM [inhibitor, partial curve, poor fit]. With O=S(=O)(NC1CCCCC1Nc1ccccc1)c1ccccc1 (stereo not drawn) the Potency was inconclusive: 35.5 µM [inhibitor, single point]. For Oc1ccccc1/C=N/NC(=S)NC1CC2CCC1C2 (stereo not drawn), the Potency was inconclusive: 2.82 µM [inhibitor, single point]. In the case of Cc1ccc(-c2cc(-c3coc4ccccc4c3=O)c3c(n2)-c2ccccc2OC3)cc1, the Potency is reported as inconclusive: 1.58 µM [inhibitor, partial curve, poor fit]. For CN=c1scc(-c2ccccc2F)n1/N=C(\C)c1cccnc1, the Potency was inconclusive: 35.5 µM [inhibitor, single point]. In the case of Cc1oc(-c2cccc(C(F)(F)F)c2)nc1CN1CCC[C@H]1CO, the Potency is reported as inconclusive: 7.94 µM [inhibitor, partial curve, poor fit]. In the case of CC(C)Cn1c(N)c(C(=O)CSc2nc3ncc(Cl)cc3[nH]2)c(=O)n(C)c1=O, the Potency is reported as inconclusive: 12.6 µM [inhibitor, single point]. With Cc1c(Cl)cccc1NC(=O)c1cc2sccc2n1Cc1ccc(F)cc1 the Potency was inconclusive: 2 µM [inhibitor, full curve]. For O=C(COc1ccc(Cl)cc1Cl)N1CCCN(C(=O)COc2ccc(Cl)cc2Cl)CC1, the Potency was inconclusive: 29.1 µM [inhibitor, single point]. For COc1ccc(C2c3ccc(O)cc3Oc3ncn(CC(C)C)c(=N)c32)cc1 (stereo not drawn), the Potency was inconclusive: 29.1 µM [inhibitor, single point]. In the case of CCC(=O)Nc1cccc(-n2nnnc2SCC(=O)NCc2ccco2)c1, the “activity change, negative = inhibition” value is reported as inactive: 3.81%. For COc1ccc(C(C)(C)C)cc1NC(=O)COC(=O)CSCc1c(C)noc1C, the “activity change, negative = inhibition” value was inactive: 1.18%. For O=C(N/N=C\c1ccc2c(c1)OCO2)c1ccco1, the Potency was inconclusive: 4.47 µM [activator, partial curve, poor fit]. For COc1cc2oc(=O)c(CC(=O)NCc3ccc(OC)c(OC)c3)c(C)c2cc1Cl, the “activity change, negative = inhibition” value was inactive: 15% [at 46.1 µM]. In the case of CCc1cccc(CC)c1NC(=O)c1cccc(S(=O)(=O)N2CCN(C)CC2)c1, the “activity change, negative = inhibition” value is reported as inactive: -13.7%. For CC(C)[C@H](NC(=O)CCCn1nnc2ccccc2c1=O)C(=O)O, the “activity change, negative = inhibition” value was inactive: 6.91% [at 46.1 µM]. With CC(C)C(=O)Nc1cccc(C(=O)Nc2ccccc2C(=O)O)c1 the Potency was inconclusive: 0.0046 µM [inhibitor, full curve, poor fit]. In the case of CSc1ccc(CNc2cccc3ccccc23)cc1, the Potency is reported as inconclusive: 11.6 µM [inhibitor, partial curve]. For CCCC(C)c1nnc(NC(=O)COc2ccc3c(c2)OCO3)s1 (stereo not drawn), the Potency was inconclusive: 12.6 µM [inhibitor, single point]. With CC(N)=NCc1cccc(CN)c1 the Potency was inconclusive: 0.708 µM [inhibitor, full curve]. With CCOc1ccc(-c2nc(N)ncc2-c2ccccc2OC)c(O)c1 the Potency was inconclusive: 20 µM [inhibitor, partial curve, poor fit]. For Cc1cccc(-c2ncc(CN3CCN(CCC(C)C)C(CCO)C3)cn2)c1 (stereo not drawn), the Potency was inconclusive: 35.5 µM [inhibitor, single point]. In the case of Cc1ccc(C2C3=C(CC(C)(C)CC3=O)NC3=C2C(=O)c2ccccc23)cc1 (stereo not drawn), the Potency is reported as inconclusive: 35.5 µM [inhibitor, single point]. In the case of CC(Oc1ccccc1)C(=O)OCC(=O)N1CC(=O)Nc2ccccc21 (stereo not drawn), the Potency is reported as inconclusive: 11.2 µM [activator, partial curve, poor fit]. With COc1ccc(C(=O)N2CCNC(=O)C2CC(=O)Nc2cc(Cl)ccc2OC)cc1 (stereo not drawn) the “activity change, negative = inhibition” value was inactive: -2.32% [at 46.1 µM]. For O=C(NCc1ccco1)c1ccc(Oc2ccccc2)cc1, the “activity change, negative = inhibition” value was inactive: 0.412%. In the case of Cc1ccc(C(=O)NCCc2cccs2)cc1, the Potency is reported as active: 1.83 µM. With CCn1c(COc2ccccc2)nnc1SCC(=O)Nc1ccc(N2CCOCC2)cc1 the “activity change, negative = inhibition” value was inactive: 8.09%. With Cc1cccc(NC(=O)CSCC(=O)Nc2cccc(S(=O)(=O)N3CCCCCC3)c2)c1 the “activity change, negative = inhibition” value was inactive: -17.8%. For CC(C)(C)n1nnnc1C(c1cccnc1)N(Cc1ccccc1)Cc1ccco1 (stereo not drawn), the “activity change, negative = inhibition” value was inactive: -13.2%. With CCOC(=O)C1=C(c2ccccc2)Nc2ncnn2C1c1ccccn1 (stereo not drawn) the “activity change, negative = inhibition” value was inactive: -15.3%. With CC1CCCC(C2(O)C(=O)Nc3ccccc32)C1=O (stereo not drawn) the Potency was inconclusive: 35.5 µM [activator, single point]. With Cc1cccc(-c2noc(-c3ccccc3C(=O)NCC3CCCO3)n2)c1 (stereo not drawn) the “activity change, negative = inhibition” value was inactive: -15.1%. With Cc1ccc(S(=O)(=O)N2CCOCC2)cc1C(=O)Nc1ccc2c(c1)CCC2 the “activity change, negative = inhibition” value was inactive: 3.17%. In the case of Cc1ccc(OCCn2c(=O)cnc3ccccc32)cc1, the Potency is reported as inconclusive: 35.5 µM [inhibitor, single point]. In the case of COc1ccc(N(CC(=O)Nc2ccc3c(c2)OCCO3)S(=O)(=O)c2cccc(C)c2)cc1, the Potency is reported as inconclusive: 35.5 µM [inhibitor, single point]. For Cn1c(CO)cnc1S(=O)(=O)Cc1c(Cl)cccc1Cl, the “activity change, negative = inhibition” value was inactive: -1.29% [at 46.1 µM]. For c1ccc2c(c1)NCC1CCCN21 (stereo not drawn), the “activity change, negative = inhibition” value was inactive: -8.42% [at 46.1 µM]. For COc1ccc(CN2C(=O)c3cccc4cccc2c34)cc1F, the Potency was inconclusive: 31.6 µM [inhibitor, single point]. In the case of O=C(Cc1ccsc1)Nc1ccc(S(=O)(=O)C(F)F)cc1, the “activity change, negative = inhibition” value is reported as inactive: -23.2% [at 46.1 µM]. For CC(C)CC(=O)NC(=S)Nc1ccc(NC(=O)c2ccco2)cc1, the “activity change, negative = inhibition” value was inactive: 19.8%. With CCCCN(C)CCN1C(=O)C2C(C(=O)Nc3cccc(OC)c3)C3C=CC2(O3)C1C(=O)NC1CCCCC1C (stereo not drawn) the Potency was inconclusive: 11.2 µM [inhibitor, partial curve]. With COc1ccc(C(=O)C2CC2)cc1 the “activity change, negative = inhibition” value was inactive: 10.3%. For COc1cc(-c2cn(S(=O)(=O)c3cccc4nsnc34)nc2N)cc(OC)c1OC, the Potency was inconclusive: 32.6 µM [inhibitor, single point]. For Cc1c(-c2ccccc2)nc2ccccc2c1C(=O)O, the “activity change, negative = inhibition” value was inactive: 28.8%. For CC1=CC2CC1C1C(=O)N(c3ccc(S(=O)(=O)Nc4nc(C)cc(C)n4)cc3)C(=O)C21 (stereo not drawn), the Potency was inconclusive: 0.0461 µM [inhibitor, partial curve, poor fit]. In the case of CC(C)(C)NC(=O)CN(C(=O)C(=O)Nc1ccc2c(c1)OCCO2)C1CC1, the “activity change, negative = inhibition” value is reported as inactive: 14.6% [at 46.1 µM].
